Source: article PMC9504391

Experiments:
[1] = target: OsABT fused to the GAL4-binding domain (BD) (rice (Oryza sativa)) (UniProt Q10D64); assay: two-hybrid; OsABT as GAL4 BD fusion, partners as GAL4 AD fusions, yeast strain YRG2; growth on SD/-Leu/-Trp/-His/-Ura medium, 4 days at 30 °C
[2] = target: OsABT fused to the C-terminal fragment of YFP (rice (Oryza sativa)); assay: split reporter; BiFC: OsABT with YFP C-terminal fragment, partners with YFP N-terminal fragment, co-expressed in N. benthamiana leaves; confocal imaging 48 h after transformation

Binder | binding [1] | binding [2]
OsABIL2 fused to the GAL4 activation domain (AD) (protein, UniProt Q6L4R7 1-445) MEDLALPAAPPAPTLSFTLLAAAAAVAEAMEEALGAALPPLTAPVPAPGDDSACGSPCSVASDCSSVASADFEGFAELGTSLLAGPAVLFDDLTAASVAVAEAAEPRAVGATARSVFAMDCVPLWGLESICGRRPEMEDDYAVVPRFFDLPLWMVAGDAAVDGLDRASFRLPAHFFAVYDGHGGVQVANYCRKRIHAVLTEELRRAEDDACGSDLSGLESKKLWEKAFVDCFSRVDAEVGGNAASGAPPVAPDTVGSTAVVAVVCSSHVIVANCGDSRAVLCRGKQPLPLSLDHKPNREDEYARIEALGGKVIQWNGYRVLGVLAMSRSIGDKYLKPYIIPVPEVTVVARAKDDDCLILASDGLWDVMSNEEVCDAARKRILLWHKKNAATASTSSAQISGDSSDPAAQAAADYLSKLALQKGSKDNITVVVIDLKAHRKFKSKA | binds | –
OsABIL2 fused to the N-terminal fragment of YFP (protein, UniProt Q6L4R7 1-445) MEDLALPAAPPAPTLSFTLLAAAAAVAEAMEEALGAALPPLTAPVPAPGDDSACGSPCSVASDCSSVASADFEGFAELGTSLLAGPAVLFDDLTAASVAVAEAAEPRAVGATARSVFAMDCVPLWGLESICGRRPEMEDDYAVVPRFFDLPLWMVAGDAAVDGLDRASFRLPAHFFAVYDGHGGVQVANYCRKRIHAVLTEELRRAEDDACGSDLSGLESKKLWEKAFVDCFSRVDAEVGGNAASGAPPVAPDTVGSTAVVAVVCSSHVIVANCGDSRAVLCRGKQPLPLSLDHKPNREDEYARIEALGGKVIQWNGYRVLGVLAMSRSIGDKYLKPYIIPVPEVTVVARAKDDDCLILASDGLWDVMSNEEVCDAARKRILLWHKKNAATASTSSAQISGDSSDPAAQAAADYLSKLALQKGSKDNITVVVIDLKAHRKFKSKA | – | binds

Results are given in words; binding and its absence hold for the method and conditions named. A result given as binding can be weak or reduced; the word gives no strength. Tags and fused reporters may be left off the sequences shown. For some assays here: Binding seen in cells or lysates may run through a third protein.
